The source of these data is PMC11134387, “Cancer-Stem-Cell Phenotype-Guided Discovery of a Microbiota-Inspired Synthetic Compound Targeting NPM1 for Leukemia” (JACS Au, 2024).

The data set deals with CD34+ cells from healthy donors. Put plainly: 1D-nano LC ESI-MSMS proteomic analysis of CD34+ cells. It is filed as cell-based, Homo sapiens.

For `COc1ccc(C2Cc3[nH]c4ccccc4c3C(CCNCC3CC3)C2N)cc1` (centres unmarked) [4b, 4-{2-[(Cyclopropylmethyl)amino]ethyl}-2-(4-methoxyphenyl)-2,3,4,9-tetrahydro-1H-carbazol-3-amine], where the note is “CD34+ cells, 5 μM, 24 h”, the “Number of proteins that disappeared completely after treatment” value stood at 340. Further, for the setting “DMSO vs SL369”, the “F/C P11413-2¦G6PD_HUMAN” value is on record as “PRESEN/AUSEN”, the “F/C P11413¦G6PD_HUMAN” value was “PRESEN/AUSEN”, the “F/C P22392¦NDKB_HUMAN” value is “PRESEN/AUSEN” and the “F/C Q14980-2¦NUMA1_HUMAN” value is “PRESEN/AUSEN”.
